Experimental data from the supplement of paper PMC12823440, “Inhibitors supercharge kinase turnover through native proteolytic circuits” (Nature, 2025).
Some of the results follow. The calls rarely recur for the same compound in another form.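 In K562 cells expressing nanoluciferase-fused kinases, luminescence was recorded at 4 h intervals between 2 and 18 h, normalized as percent of control with DMSO at 100% and a positive control at 0%. A significant (2 sigma) signal drop marks a time point as decreased. The authors' rule for a hit is not shown and takes in more than the number of time points.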

The chains behind the UniProt entries cited, without tags or fusion partners.
UniProt Q16620, whole entry, looked up: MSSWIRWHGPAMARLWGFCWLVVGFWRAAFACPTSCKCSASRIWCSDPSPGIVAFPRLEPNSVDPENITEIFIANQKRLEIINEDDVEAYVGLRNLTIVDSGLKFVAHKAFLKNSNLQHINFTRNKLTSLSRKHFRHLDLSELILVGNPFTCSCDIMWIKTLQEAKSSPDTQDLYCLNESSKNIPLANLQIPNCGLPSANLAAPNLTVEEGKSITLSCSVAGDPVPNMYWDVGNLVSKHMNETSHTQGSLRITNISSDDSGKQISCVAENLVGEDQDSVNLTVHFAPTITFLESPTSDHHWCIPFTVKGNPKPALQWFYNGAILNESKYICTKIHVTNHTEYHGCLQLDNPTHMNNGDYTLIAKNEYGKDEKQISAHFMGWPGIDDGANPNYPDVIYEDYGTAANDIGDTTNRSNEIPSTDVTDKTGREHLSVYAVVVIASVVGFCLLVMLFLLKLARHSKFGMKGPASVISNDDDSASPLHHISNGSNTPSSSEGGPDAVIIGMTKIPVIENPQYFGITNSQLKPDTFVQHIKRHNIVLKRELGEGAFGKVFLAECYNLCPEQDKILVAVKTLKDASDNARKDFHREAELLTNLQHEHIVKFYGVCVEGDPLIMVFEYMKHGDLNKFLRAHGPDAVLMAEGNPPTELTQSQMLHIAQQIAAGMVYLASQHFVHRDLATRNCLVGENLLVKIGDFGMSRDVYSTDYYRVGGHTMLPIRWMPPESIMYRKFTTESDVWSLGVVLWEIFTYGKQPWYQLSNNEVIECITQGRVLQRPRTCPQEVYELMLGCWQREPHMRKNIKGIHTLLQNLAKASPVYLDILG

The molecules below were run against NTRK2 (UniProt Q16620) (assay: kinase-Nluc reporter destabilization hit call (1 = scored as downregulated) (binary); higher = compound decreases kinase abundance). Settings: K562; 2-18 h.

kinase-Nluc reporter destabilization hit call, inactive:
Cc1cc(Nc2cc(Cl)nc(Oc3ccc([N+](=O)[O-])cc3)n2)n[nH]1 [Autophinib] (2.5 µM) 0, CN1CCN(c2ccc(Nc3ncc4nc(Nc5ccccc5)n([C@@H]5CCN(S(=O)(=O)C6CC6)C5)c4n3)cc2)CC1 (2.5 µM) 0, Cc1c(CN2CCN(S(C)(=O)=O)CC2)sc2c(N3CCOCC3)nc(-c3cnc(N)nc3)nc12 (2.5 µM) 0, O=C(NCCCNc1nc(Nc2cccc(NC(=O)N3CCCC3)c2)ncc1I)c1cccs1 (2.5 µM) 0, O=C(/C=C/c1ccc(O[C@@H]2O[C@H](CO)[C@@H](O)[C@H](O)[C@H]2O[C@@H]2OC[C@](O)(CO)[C@H]2O)cc1)c1ccc(O)cc1O [Isoliquiritin apioside] (10 µM) 0, O=C1NC(=O)/C(=C/c2ccc3c(c2)OC(F)(F)O3)S1 (10 µM) 0, COc1ccc([C@@H]2CC(=O)c3c(O)cc(O)cc3O2)cc1O [Hesperetin] (10 µM) 0, N#Cc1c(-c2ccccc2)cc(-c2cc(Br)ccc2O)[nH]c1=O (10 µM) 0, Cc1c(CN2CCN(C(=O)[C@H](C)O)CC2)sc2c(N3CCOCC3)nc(-c3cnc(N)nc3)nc12 [Apitolisib] (10 µM) 0, NC1(Cc2ccc(Cl)cc2)CCN(c2ncnc3[nH]ccc23)CC1 (10 µM) 0, O=C(/C=C/c1ccc(O)c(O)c1)c1ccc(O[C@@H]2O[C@H](CO)[C@@H](O)[C@H](O)[C@H]2O)c(O)c1O [Marein] (10 µM) 0, CN(CC(=O)N(Cc1ccc(C2CCCCC2)cc1)c1ccc(C(=O)O)cc1)S(=O)(=O)c1c(F)c(F)c(F)c(F)c1F (2.5 µM) 0, CC(C)NC(=O)N1CC[C@H](NC2=Nc3cc(F)ccc3N(CC(F)F)c3ccc(Cl)cc32)C1 (10 µM) 0
